The values that follow come from article PMC7216740.

No constants are given. Whether binding was seen depends on the method and setting. In cells and extracts the contact can be indirect. Binding calls can cover weak binding; strength is not graded here. Where a sequence is shown, tags or fusion partners need not be part of it.

This assay has as its target HBV large envelope protein (LHB) N146A deglycosylation mutant, C-terminal flag tag (hepatitis B virus (genotype D)). The assay can be described thus: co-IP; HEK293T cells co-transfected, harvested 48 h post-transfection; lysate incubated with anti-flag antibody conjugated to protein G beads at 4°C for 4 h; co-IP products analysed by immunoblotting. Background: A western blot detects proteins with antibodies after separation by electrophoresis.

B1: serine incorporator 5 (SERINC5), C-terminal HA tag (protein, UniProt Q86VE9-4 1-461)
chain: MSAQCCAGQLACCCGSAGCSLCCDCCPRIRQSLSTRFMYALYFILVVVLCCIMMSTTVAHKMKEHIPFFEDMCKGIKAGDTCEKLVGYSAVYRVCFGMACFFFIFCLLTLKINNSKSCRAHIHNGFWFFKLLLLGAMCSGAFFIPDQDTFLNAWRYVGAVGGFLFIGIQLLLLVEFAHKWNKNWTAGTASNKLWYASLALVTLIMYSIATGGLVLMAVFYTQKDSCMENKILLGVNGGLCLLISLVAISPWVQNRQPHSGLLQSGVISCYVTYLTFSALSSKPAEVVLDEHGKNVTICVPDFGQDLYRDENLVTILGTSLLIGCILYSCLTSTTRSSSDALQGRYAAPELEIARCCFCFSPGGEDTEEQQPGKEGPRVIYDEKKGTVYIYSYFHFVFFLASLYVMMTVTNWFNYESANIESFFSGSWSIFWVKMASCWICVLLYLCTLVAPLCCPTREFSV
For B1, the binding result was “binds”.
